Assay results as given in paper PMC9765265.

Tests used:
3×Flag-sIFITM2 (pig) = target: T1, 3×Flag-sIFITM2 (pig) (UniProt F4ZS15); assay: co-IP; PK15 cells cotransfected with 3×Flag-sIFITM1/2/3 and GFP-sABHD16A for 24 h; lysates precipitated with anti-Flag antibody on magnetic beads, 4°C, 4 h; blot with anti-GFP and anti-Flag
T1 sequence: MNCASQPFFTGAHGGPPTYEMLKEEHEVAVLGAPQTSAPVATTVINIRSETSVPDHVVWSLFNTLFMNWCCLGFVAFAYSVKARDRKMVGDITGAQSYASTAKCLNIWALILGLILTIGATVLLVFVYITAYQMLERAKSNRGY

3×Flag-sIFITM3 (pig) = target: T2, 3×Flag-sIFITM3 (pig) (UniProt E7EAX3); assay: as above
T2 sequence: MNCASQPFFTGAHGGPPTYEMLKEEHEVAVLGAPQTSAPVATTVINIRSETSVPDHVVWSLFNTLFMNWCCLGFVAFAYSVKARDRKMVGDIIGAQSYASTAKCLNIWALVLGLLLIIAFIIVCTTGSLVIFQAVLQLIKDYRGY

[1] = target: T3, swine IFITM2 (sIFITM2), Gal4-binding domain fusion (pGBKT7-sifitm2) (pig) (UniProt F4ZS15); assay: two-hybrid; AH109 yeast; Gal4 BD-IFITM as bait (pGBKT7), AD-ABHD16A as prey (pGADT7); growth on SD-Ade/-His/-Leu/-Trp and blue colonies with X-alpha-Gal
T3 sequence: T1 sequence

[2] = target: T4, swine IFITM3 (sIFITM3), Gal4-binding domain fusion (pGBKT7-sifitm3) (pig) (UniProt E7EAX3); assay: as above
T4 sequence: T2 sequence

## GFP-sABHD16A (pig) (enzyme)
3×Flag-sIFITM2 (pig)
  binding: binds
3×Flag-sIFITM3 (pig)
  binding: binds

## swine ABHD16A (sABHD16A), Gal4 activation domain fusion (pGADT7-sabhd16a) (pig) (enzyme)
[1]
  binding: binds
[2]
  binding: binds

These are yes or no findings as the source states them, for the method shown. A result given as binding can be weak or reduced; the word gives no strength. Where a sequence is shown, tags or fusion partners need not be part of it. For some of these results: Binding seen in cells or lysates may run through a third protein.
